The supplement of paper PMC8728848
The list shows a part of the results.

How the values were obtained:
Assay in all cases: glycan array binding signal (z-score within array); higher = stronger binding
Conditions in all cases: glycan notation: IUPAC condensed, linker removed
[1] = target: GlcNAc(a1-6)Gal(b1-4)GlcNAc
Method in brief: (§1)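 Columns mapping to the same glycan were averaged after glycan names were converted to IUPAC-condensed notation. The data come from 3228 arrays in the Consortium for Functional Glycomics database, limited to those with an available protein sequence. Binding is reported as a within-array Z-score averaged across arrays of one protein sequence and across linkers.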

[2] = target: GlcNAc(b1-2)Gal(b1-3)GalNAc
Method in brief: as §1

[3] = target: GlcNAc(b1-2)Man(a1-3)[GlcNAc(b1-2)Man(a1-6)]Man(b1-4)GlcNAc(b1-4)GlcNAc
Method in brief: as §1

[4] = target: GlcNAc(b1-2)Man(a1-3)[GlcNAc(b1-2)Man(a1-6)]Man(b1-4)GlcNAc(b1-4)[Fuc(a1-6)]GlcNAc
Method in brief: as §1

[5] = target: GlcNAc(b1-2)Man(a1-3)[GlcNAc(b1-4)][GlcNAc(b1-2)Man(a1-6)]Man(b1-4)GlcNAc(b1-4)GlcNAc
Method in brief: as §1

[6] = target: GlcNAc(b1-2)Man(a1-3)[GlcNAc(b1-4)][GlcNAc(b1-2)Man(a1-6)]Man(b1-4)GlcNAc(b1-4)[Fuc(a1-6)]GlcNAc
Method in brief: as §1

[7] = target: GlcNAc(b1-2)[GlcNAc(b1-4)]Man(a1-3)[GlcNAc(b1-2)Man(a1-6)]Man(b1-4)GlcNAc(b1-4)GlcNAc
Method in brief: as §1

[8] = target: GlcNAc(b1-2)[GlcNAc(b1-4)]Man(a1-3)[GlcNAc(b1-4)][GlcNAc(b1-2)Man(a1-6)]Man(b1-4)GlcNAc(b1-4)GlcNAc
Method in brief: as §1

[9] = target: GlcNAc(b1-2)[GlcNAc(b1-4)]Man(a1-3)[GlcNAc(b1-4)][GlcNAc(b1-2)[GlcNAc(b1-6)]Man(a1-6)]Man(b1-4)GlcNAc(b1-4)GlcNAc
Method in brief: as §1

[10] = target: GlcNAc(b1-2)[GlcNAc(b1-4)]Man(a1-3)[GlcNAc(b1-4)][GlcNAc(b1-2)[GlcNAc(b1-6)]Man(a1-6)]Man(b1-4)GlcNAc(b1-4)[Fuc(a1-6)]GlcNAc
Method in brief: as §1

[11] = target: GlcNAc(b1-2)[GlcNAc(b1-6)]Man(a1-6)[GlcNAc(b1-2)Man(a1-3)]Man(b1-4)GlcNAc(b1-4)GlcNAc
Method in brief: as §1

[12] = target: GlcNAc(b1-2)[GlcNAc(b1-6)]Man(a1-6)[GlcNAc(b1-2)Man(a1-3)]Man(b1-4)GlcNAc(b1-4)[Fuc(a1-6)]GlcNAc
Method in brief: as §1

[13] = target: GlcNAc(b1-2)[GlcNAc(b1-6)]Man(a1-6)[GlcNAc(b1-4)][GlcNAc(b1-2)Man(a1-3)]Man(b1-4)GlcNAc(b1-4)GlcNAc
Method in brief: as §1

GlcNAc(b1-3)Fuc = target: GlcNAc(b1-3)Fuc
Method in brief: as §1

GlcNAc(b1-3)Gal = target: GlcNAc(b1-3)Gal
Method in brief: as §1

[14] = target: GlcNAc(b1-3)Gal(b1-3)GalNAc
Method in brief: as §1

GlcNAc(b1-3)Gal(b1-4)Glc = target: GlcNAc(b1-3)Gal(b1-4)Glc
Method in brief: as §1

[15] = target: GlcNAc(b1-3)Gal(b1-4)GlcNAc
Method in brief: as §1

[16] = target: GlcNAc(b1-3)Gal(b1-4)GlcNAc(b1-2)Man(a1-3)[GlcNAc(b1-3)Gal(b1-4)GlcNAc(b1-2)Man(a1-6)]Man(b1-4)GlcNAc(b1-4)GlcNAc
Method in brief: as §1

[17] = target: GlcNAc(b1-3)Gal(b1-4)GlcNAc(b1-2)Man(a1-3)[GlcNAc(b1-3)Gal(b1-4)GlcNAc(b1-2)Man(a1-6)]Man(b1-4)GlcNAc(b1-4)[Fuc(a1-6)]GlcNAc
Method in brief: as §1

[18] = target: GlcNAc(b1-3)Gal(b1-4)GlcNAc(b1-2)[GlcNAc(b1-3)Gal(b1-4)GlcNAc(b1-6)]Man(a1-6)[GlcNAc(b1-3)Gal(b1-4)GlcNAc(b1-2)Man(a1-3)]Man(b1-4)GlcNAc(b1-4)GlcNAc
Method in brief: as §1

[19] = target: GlcNAc(b1-3)Gal(b1-4)GlcNAc(b1-3)Gal(b1-4)GlcNAc
Method in brief: as §1

[20] = target: GlcNAc(b1-3)Gal(b1-4)GlcNAc(b1-3)Gal(b1-4)GlcNAc(b1-2)Man(a1-3)[GlcNAc(b1-3)Gal(b1-4)GlcNAc(b1-3)Gal(b1-4)GlcNAc(b1-2)Man(a1-6)]Man(b1-4)GlcNAc(b1-4)GlcNAc
Method in brief: as §1

[21] = target: GlcNAc(b1-3)Gal(b1-4)GlcNAc(b1-3)Gal(b1-4)GlcNAc(b1-2)Man(a1-3)[GlcNAc(b1-3)Gal(b1-4)GlcNAc(b1-3)Gal(b1-4)GlcNAc(b1-2)Man(a1-6)]Man(b1-4)GlcNAc(b1-4)[Fuc(a1-6)]GlcNAc
Method in brief: as §1

[22] = target: GlcNAc(b1-3)Gal(b1-4)GlcNAc(b1-3)Gal(b1-4)GlcNAc(b1-2)[GlcNAc(b1-3)Gal(b1-4)GlcNAc(b1-3)Gal(b1-4)GlcNAc(b1-6)]Man(a1-6)[GlcNAc(b1-3)Gal(b1-4)GlcNAc(b1-3)Gal(b1-4)GlcNAc(b1-2)Man(a1-3)]Man(b1-4)GlcNAc(b1-4)[Fuc(a1-6)]GlcNAc
Method in brief: as §1

[23] = target: GlcNAc(b1-3)Gal(b1-4)GlcNAc(b1-3)Gal(b1-4)GlcNAc(b1-3)Gal(b1-4)GlcNAc(b1-2)Man(a1-3)[GlcNAc(b1-3)Gal(b1-4)GlcNAc(b1-3)Gal(b1-4)GlcNAc(b1-3)Gal(b1-4)GlcNAc(b1-2)Man(a1-6)]Man(b1-4)GlcNAc(b1-4)GlcNAc
Method in brief: as §1

[24] = target: GlcNAc(b1-3)Gal(b1-4)GlcNAc(b1-3)Gal(b1-4)GlcNAc(b1-3)Gal(b1-4)GlcNAc(b1-2)Man(a1-3)[GlcNAc(b1-3)Gal(b1-4)GlcNAc(b1-3)Gal(b1-4)GlcNAc(b1-3)Gal(b1-4)GlcNAc(b1-2)Man(a1-6)]Man(b1-4)GlcNAc(b1-4)[Fuc(a1-6)]GlcNAc
Method in brief: as §1

[25] = target: GlcNAc(b1-3)Gal(b1-4)GlcNAc(b1-3)Gal(b1-4)GlcNAc(b1-3)Gal(b1-4)GlcNAc(b1-2)[GlcNAc(b1-3)Gal(b1-4)GlcNAc(b1-3)Gal(b1-4)GlcNAc(b1-3)Gal(b1-4)GlcNAc(b1-6)]Man(a1-6)[GlcNAc(b1-3)Gal(b1-4)GlcNAc(b1-3)Gal(b1-4)GlcNAc(b1-3)Gal(b1-4)GlcNAc(b1-2)Man(a1-3)]Man(b1-4)GlcNAc(b1-4)[Fuc(a1-6)]GlcNAc
Method in brief: as §1

[26] = target: GlcNAc(b1-3)Gal(b1-4)GlcNAc(b1-3)Gal(b1-4)GlcNAc(b1-3)Gal(b1-4)GlcNAc(b1-3)Gal(b1-4)GlcNAc(b1-2)Man(a1-3)[GlcNAc(b1-3)Gal(b1-4)GlcNAc(b1-3)Gal(b1-4)GlcNAc(b1-3)Gal(b1-4)GlcNAc(b1-3)Gal(b1-4)GlcNAc(b1-2)Man(a1-6)]Man(b1-4)GlcNAc(b1-4)GlcNAc
Method in brief: as §1

[27] = target: GlcNAc(b1-3)Gal(b1-4)GlcNAc(b1-3)Gal(b1-4)GlcNAc(b1-3)Gal(b1-4)GlcNAc(b1-3)Gal(b1-4)GlcNAc(b1-2)Man(a1-3)[GlcNAc(b1-3)Gal(b1-4)GlcNAc(b1-3)Gal(b1-4)GlcNAc(b1-3)Gal(b1-4)GlcNAc(b1-3)Gal(b1-4)GlcNAc(b1-2)Man(a1-6)]Man(b1-4)GlcNAc(b1-4)[Fuc(a1-6)]GlcNAc
Method in brief: as §1

B1: BT4246 (Bacteroides thetaiotaomicron), Q89ZX5 (protein)
chain: MGSSHHHHHHENLYFQGHMASDYLDVVPPEQPNIDDAMSSPTRALGFLYSCYGGVSTDLPSAYLGEINSTTDEYVLPYSWNTDGYWGAYAFNTASSTNQDWLWGTTYQYIGQCYLFLQKLENAGSDIASDAEKEQWRAECQFLVAYYHFATLRRYGPIPITDSYIPMDTPTSEYNGRFHFDYCVDWIANQLDEAAKVLPANRTVTNEWGRATSTIAKAVKARLLLYAASPLWNGSFPYPNWQNENFETPGYGKALVSNTYDKSKWERALAACQEALTLATTSGDRELYDDDEYYSRQSLNLPFVPGVADVEDNKEFLKNVMKMRYAVSTRESEGNKEIIWGLSNQFDFYSRYPLRILKKSDGTWHAGYSGVSPTLYTFEHFYTANGKLPEKDLDFTPSSEWFESAGISSREDIIKLNVGREPRFYAWMAFDGGDYGTKFAAGSPLKLEMRNSEMHGYNPSLFNRDHSVTGFLTQKFVDPVTEFYTAGGSTSGTSAPTILFRLAELYLNVAECHAALGNTQEAIDALNPVRERAGIPKLTLADITNNMTIKDWVHNERFVELWNEGHRFFDVRRWAEGAKYFGANKREGLNAEVQSPTFEEFNKRTTVDAPYVWENRMYLNPVFYNEVYKNPQMVQAPGY
glycan array binding signal (z-score) [1]: 0.04
glycan array binding signal (z-score) [2]: 1.89
glycan array binding signal (z-score) [3]: -0.692
glycan array binding signal (z-score) [4]: -0.482
glycan array binding signal (z-score) [5]: -0.351
glycan array binding signal (z-score) [6]: 2.52
glycan array binding signal (z-score) [7]: -1.62
glycan array binding signal (z-score) [8]: 0.48
glycan array binding signal (z-score) [9]: -0.031
glycan array binding signal (z-score) [10]: 0.184
glycan array binding signal (z-score) [11]: -1.62
glycan array binding signal (z-score) [12]: 0.064
glycan array binding signal (z-score) [13]: -0.634
glycan array binding signal (z-score) (GlcNAc(b1-3)Fuc): 1.1
glycan array binding signal (z-score) (GlcNAc(b1-3)Gal): 0.389
glycan array binding signal (z-score) [14]: -0.081
glycan array binding signal (z-score) (GlcNAc(b1-3)Gal(b1-4)Glc): 0.837
glycan array binding signal (z-score) [15]: 0.235
glycan array binding signal (z-score) [16]: 0.802
glycan array binding signal (z-score) [17]: 1.55
glycan array binding signal (z-score) [18]: 0.786
glycan array binding signal (z-score) [19]: -0.233
glycan array binding signal (z-score) [20]: -0.667
glycan array binding signal (z-score) [21]: -0.16
glycan array binding signal (z-score) [22]: 1.52
glycan array binding signal (z-score) [23]: 1.73
glycan array binding signal (z-score) [24]: 2.02
glycan array binding signal (z-score) [25]: 0.637
glycan array binding signal (z-score) [26]: 0.922
glycan array binding signal (z-score) [27]: -0.328
